Laboratory results: PubChem BioAssay AID1259254 (NCATS, 2017)
Purpose: 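Gene knock-downs that lead to re-replication, shown by excess G2 DNA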 (primary screen). System: human HCT116 colorectal cancer cells. Reagent: single siRNA against human genes. Time to read-out: 3 days. Measured: 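Imaged Hoechst DNA stain sorts each cell into a cycle phase by DNA amount; per plate, G2 fraction set to 0% for non-targeting and 100% for GMNN siRNA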. Reading the numbers: G2 robust z-score and G2 cells, % of GMNN control: higher = more G2 cells, more excess DNA replication; raw share of cells in G2: higher = larger share of cells with G2 DNA content. Rule for the call: 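An siRNA counts as active if its G2 robust z-score lies at least 5 MADs above the screen median; here such calls match roughly 38% of GMNN control or more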.
The whole screen tested about 59,000 reagents; this is an unselected part. About 1,550 of all reagents (2.6%) count as active. 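G2 share is only a proxy for re-replication; each gene was hit by three separate siRNAs, and active genes were retested.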 The raw values are shown without normalisation. Reagents against one gene are numbered here. No sequences are given here. The record does not give: the amount of reagent.

gene knocked down | reagent | G2 robust z-score | G2 cells, % of GMNN control | raw share of cells in G2 (%) | outcome
PYCR3 | 1 | -0.826 | -2.85 | 4.47 | inactive
PYCR3 | 2 | 2.6 | 21.2 | 11.9 | inactive
PYCR3 | 3 | 2.6 | 21.3 | 11.9 | inactive
SH2B2 | 1 | -0.839 | -2.93 | 3.83 | inactive
SH2B2 | 2 | -0.296 | 0.882 | 4.5 | inactive
SH2B2 | 3 | -0.827 | -2.85 | 2.11 | inactive
STEAP3 | 1 | 1.19 | 11.3 | 8.88 | inactive
STEAP3 | 2 | -0.548 | -0.888 | 3.77 | inactive
STEAP3 | 3 | -0.924 | -3.53 | 2.01 | inactive
TACSTD2 | 1 | 2.8 | 22.6 | 10.7 | inactive
TACSTD2 | 2 | -0.0213 | 2.82 | 6.45 | inactive
TACSTD2 | 3 | -0.514 | -0.649 | 5.21 | inactive
CALM2 | 1 | 4.28 | 33.1 | 16.5 | inactive
CALM2 | 2 | 1.71 | 15 | 10.5 | inactive
CALM2 | 3 | 0.14 | 3.95 | 5.42 | inactive
LOC642620 (retired record) | 1 | -0.669 | -1.74 | 2.53 | inactive
LOC642620 (retired record) | 2 | 2.57 | 21.1 | 11.8 | inactive
LOC642620 (retired record) | 3 | -0.276 | 1.03 | 3.81 | inactive
LOC642620 (retired record) | 4 | 2.06 | 17.4 | 9.05 | inactive
LOC642620 (retired record) | 5 | 0.983 | 9.88 | 7.44 | inactive
LOC642620 (retired record) | 6 | -0.526 | -0.732 | 3.14 | inactive
CFAP57 | 1 | 0.0918 | 3.61 | 5.04 | inactive
CFAP57 | 2 | 1.54 | 13.8 | 7.18 | inactive
CFAP57 | 3 | 0.282 | 4.95 | 4.8 | inactive
ESPNP | 1 | -0.734 | -2.2 | 2.19 | inactive
ESPNP | 2 | -0.228 | 1.36 | 3.68 | inactive
ESPNP | 3 | 2.03 | 17.3 | 9.93 | inactive
IZUMO1 | 1 | 0.00323 | 2.99 | 4.2 | inactive
IZUMO1 | 2 | -0.669 | -1.74 | 2.74 | inactive
IZUMO1 | 3 | -0.92 | -3.51 | 2.36 | inactive

Sorted by “raw share of cells in G2 (%)” (ascending): 4 of the entries above
gene knocked down | reagent | G2 robust z-score | G2 cells, % of GMNN control | raw share of cells in G2 (%) | outcome
STEAP3 | 3 | -0.924 | -3.53 | 2.01 | inactive
STEAP3 | 2 | -0.548 | -0.888 | 3.77 | inactive
TACSTD2 | 2 | -0.0213 | 2.82 | 6.45 | inactive
TACSTD2 | 1 | 2.8 | 22.6 | 10.7 | inactive
